Test results from patent US11065203B2, “Liposomal compositions and uses of same” (Technion Research & Development Foundation Limited, priority 2009, dated 2021).

Test: Proteomics analysis (trypsin digest, LC-MS/MS) of hMSC ghosts and derived CDLs, conditioned or unconditioned by PC3 medium
Design: species or system human
Settings: LC-MS/MS peak area per protein; for Ratio of expression Cond. CDLs/Cond. Ghosts: CDLs derived from conditioned hMSCs versus conditioned ghosts; for Ratio of expression Cond Ghosts/Ghosts: hMSC ghosts conditioned by PC3 medium versus unconditioned ghosts

Substance | Ratio of expression Cond. CDLs/Cond. Ghosts [%] | Ratio of expression Cond Ghosts/Ghosts [%]
O00264 | 6 | 100
O00571 | 7 | 100
O14880 | 2 | 100
O95831 | 4 | 176
O96008 | 3 | 100
P00367 | 7 | 100
P06748 | 9 | 100
P07996 | 2 | 129
P08962 | 25 | 100
P09382 | 28 | 45
P09493 | 27 | 66
P15311 | 3 | 100
P21333 | 6 | 100
P23528 | 12 | 100
P35222 | 6 | 100
P35749 | 0 | 100
P46940 | 1 | 133
P49368 | 11 | 100

Substance | Ratio of expression Cond. CDLs/Cond. Ghosts [%] | Ratio of expression Cond Ghosts/Ghosts [%]
P53597 | 3 | 100
P54709 | 3 | 100
P55809 | 2 | 100
P62820 | 5 | 100
P62937 | 9 | 54
Q8NBS9 | 3 | 100
Q9H0U4 | 1 | 161
Q9NYU2 | 1 | 140
Q9UBI6 | 8 | 100
Q9ULV4 | 3 | 131
Q9Y490 | 5 | 34
Q53EP0 | 2 | 302
Q96AY3 | 1 | 100
Q12884 | 3 | 100
Q12905 | 4 | 100
Q13813 | 5 | 100
Q99653 | 3 | 100
Q99714 | 2 | 100
